In this assay the target is T1, SecY translocase (Synechocystis sp. PCC 6803) (UniProt P77964).
T1 sequence: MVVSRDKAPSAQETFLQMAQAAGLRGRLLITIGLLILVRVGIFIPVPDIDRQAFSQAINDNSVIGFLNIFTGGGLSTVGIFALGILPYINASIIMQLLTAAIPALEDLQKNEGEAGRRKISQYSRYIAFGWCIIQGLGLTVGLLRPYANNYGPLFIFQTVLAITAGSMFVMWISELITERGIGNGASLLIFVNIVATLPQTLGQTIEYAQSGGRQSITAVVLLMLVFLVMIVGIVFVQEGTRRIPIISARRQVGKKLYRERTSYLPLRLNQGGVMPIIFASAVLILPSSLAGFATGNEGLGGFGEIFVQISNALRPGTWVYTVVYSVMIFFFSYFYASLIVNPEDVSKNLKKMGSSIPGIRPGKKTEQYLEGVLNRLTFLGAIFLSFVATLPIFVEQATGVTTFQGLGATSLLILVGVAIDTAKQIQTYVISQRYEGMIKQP
As to the kind of experiment: co-IP; anti-SecY antibody incubated overnight with membrane proteins isolated from WT, ΔpilD, rev2 and rev3 strains grown with glucose (Glc+), then immobilised on Protein A-Sepharose, washed, eluted in 1% SDS/dithiothreitol; blot probed with anti-SecY, anti-PilA1 and anti-SecE antibodies.

No constants are given. Whether binding was seen depends on the method and setting. Binding seen in cells or lysates may run through a third protein. Binding can be weak; no strength is given.

With “non-glycosylated PilA1 prepilin (Synechocystis sp. PCC 6803)”, the binding entry is “binds”.

For the origin of these results see publication PMC8546353.
